Data on 1 substance can be found in article doi:10.1101/051425.

Results are given in words; binding and its absence hold for the method and conditions named.

This test concerns the target SH3 domain of rat Shank3 (residues 470-528) (rat) (UniProt Q9JLU4). Nature of the test: SEC.

“SH3 domain of rat Shank3 (residues 470-528) (from UniProt Q9JLU4 470-528) (domain or fragment)”: the binding entry is “no binding”.
